log2 fold change data for 34 targets are collected here from the supplement of paper PMC10849652.

By UniProt entry, the sequences of proteins in these tests, tags left out. Where a name states a change or a piece, a line headed by the entry shows the natural chain unless it says otherwise.
UniProt O43167: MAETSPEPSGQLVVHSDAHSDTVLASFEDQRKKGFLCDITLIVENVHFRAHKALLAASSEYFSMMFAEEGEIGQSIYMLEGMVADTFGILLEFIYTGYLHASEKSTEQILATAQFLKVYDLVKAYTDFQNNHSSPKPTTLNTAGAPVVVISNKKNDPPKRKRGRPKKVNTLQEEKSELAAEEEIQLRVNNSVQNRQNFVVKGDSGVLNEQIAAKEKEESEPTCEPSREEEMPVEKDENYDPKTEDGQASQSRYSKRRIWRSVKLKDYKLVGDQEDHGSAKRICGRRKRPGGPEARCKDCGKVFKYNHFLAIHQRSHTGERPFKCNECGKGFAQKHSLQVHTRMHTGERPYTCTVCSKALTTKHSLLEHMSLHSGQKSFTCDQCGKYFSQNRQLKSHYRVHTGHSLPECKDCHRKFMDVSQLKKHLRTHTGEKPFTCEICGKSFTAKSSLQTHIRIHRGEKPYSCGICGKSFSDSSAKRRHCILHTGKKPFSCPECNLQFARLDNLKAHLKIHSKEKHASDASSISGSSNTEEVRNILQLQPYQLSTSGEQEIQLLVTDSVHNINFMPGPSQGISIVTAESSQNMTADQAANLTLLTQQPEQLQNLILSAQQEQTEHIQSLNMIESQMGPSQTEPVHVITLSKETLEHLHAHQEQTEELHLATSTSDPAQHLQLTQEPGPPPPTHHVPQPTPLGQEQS
UniProt Q9Y548: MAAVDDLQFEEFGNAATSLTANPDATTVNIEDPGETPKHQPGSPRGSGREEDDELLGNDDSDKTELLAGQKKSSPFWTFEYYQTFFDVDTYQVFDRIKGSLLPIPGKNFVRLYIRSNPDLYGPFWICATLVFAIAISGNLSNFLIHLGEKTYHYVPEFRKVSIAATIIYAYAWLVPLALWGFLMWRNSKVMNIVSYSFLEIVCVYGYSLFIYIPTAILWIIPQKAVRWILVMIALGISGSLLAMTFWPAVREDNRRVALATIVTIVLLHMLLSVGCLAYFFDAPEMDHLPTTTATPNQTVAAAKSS
UniProt O43670: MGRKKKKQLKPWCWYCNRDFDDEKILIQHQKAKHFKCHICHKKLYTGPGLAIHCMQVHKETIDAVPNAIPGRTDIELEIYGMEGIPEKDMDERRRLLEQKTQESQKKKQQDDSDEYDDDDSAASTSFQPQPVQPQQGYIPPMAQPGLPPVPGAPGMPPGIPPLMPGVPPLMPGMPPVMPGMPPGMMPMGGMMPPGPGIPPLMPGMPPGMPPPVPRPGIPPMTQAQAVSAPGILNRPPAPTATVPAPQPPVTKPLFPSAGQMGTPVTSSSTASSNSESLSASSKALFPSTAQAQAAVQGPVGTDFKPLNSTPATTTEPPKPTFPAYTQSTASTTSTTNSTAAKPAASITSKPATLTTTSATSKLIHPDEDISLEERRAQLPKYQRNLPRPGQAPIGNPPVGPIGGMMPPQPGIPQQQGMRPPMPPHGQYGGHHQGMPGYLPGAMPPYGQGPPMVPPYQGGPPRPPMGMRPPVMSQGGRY
UniProt O96006: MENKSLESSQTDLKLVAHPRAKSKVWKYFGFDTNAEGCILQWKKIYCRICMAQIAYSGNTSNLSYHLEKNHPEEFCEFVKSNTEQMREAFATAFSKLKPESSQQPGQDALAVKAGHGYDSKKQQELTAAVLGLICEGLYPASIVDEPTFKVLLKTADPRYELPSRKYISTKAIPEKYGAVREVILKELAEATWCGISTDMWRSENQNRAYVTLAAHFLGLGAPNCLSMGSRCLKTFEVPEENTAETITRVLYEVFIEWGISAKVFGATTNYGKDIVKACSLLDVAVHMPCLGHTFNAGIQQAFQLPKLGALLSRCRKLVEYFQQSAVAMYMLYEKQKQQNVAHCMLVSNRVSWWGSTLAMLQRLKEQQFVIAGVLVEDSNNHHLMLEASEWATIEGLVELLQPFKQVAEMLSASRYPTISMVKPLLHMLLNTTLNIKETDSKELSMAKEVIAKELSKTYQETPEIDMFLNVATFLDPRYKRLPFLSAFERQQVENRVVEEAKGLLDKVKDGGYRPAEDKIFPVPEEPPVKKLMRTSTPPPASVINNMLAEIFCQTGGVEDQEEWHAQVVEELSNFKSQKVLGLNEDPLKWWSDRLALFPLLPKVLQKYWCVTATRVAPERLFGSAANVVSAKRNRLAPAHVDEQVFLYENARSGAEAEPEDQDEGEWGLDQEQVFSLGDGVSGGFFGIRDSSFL
UniProt Q8IUH4: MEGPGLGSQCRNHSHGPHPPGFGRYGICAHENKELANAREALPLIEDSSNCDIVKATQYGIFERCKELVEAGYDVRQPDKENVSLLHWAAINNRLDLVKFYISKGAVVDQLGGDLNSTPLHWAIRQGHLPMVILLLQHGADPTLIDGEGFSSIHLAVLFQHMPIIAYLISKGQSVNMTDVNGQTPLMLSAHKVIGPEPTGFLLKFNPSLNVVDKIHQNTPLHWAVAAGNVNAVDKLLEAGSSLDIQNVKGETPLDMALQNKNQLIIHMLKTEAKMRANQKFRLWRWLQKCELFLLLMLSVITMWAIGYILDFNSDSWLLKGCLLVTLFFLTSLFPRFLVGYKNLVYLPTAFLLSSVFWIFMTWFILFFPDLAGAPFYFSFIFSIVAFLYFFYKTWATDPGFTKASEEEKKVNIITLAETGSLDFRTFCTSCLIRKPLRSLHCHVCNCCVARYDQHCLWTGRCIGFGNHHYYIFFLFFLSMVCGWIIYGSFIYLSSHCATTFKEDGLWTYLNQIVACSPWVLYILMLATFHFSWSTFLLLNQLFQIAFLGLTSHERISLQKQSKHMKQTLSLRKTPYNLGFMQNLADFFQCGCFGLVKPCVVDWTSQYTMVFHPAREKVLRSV
UniProt Q8IX07: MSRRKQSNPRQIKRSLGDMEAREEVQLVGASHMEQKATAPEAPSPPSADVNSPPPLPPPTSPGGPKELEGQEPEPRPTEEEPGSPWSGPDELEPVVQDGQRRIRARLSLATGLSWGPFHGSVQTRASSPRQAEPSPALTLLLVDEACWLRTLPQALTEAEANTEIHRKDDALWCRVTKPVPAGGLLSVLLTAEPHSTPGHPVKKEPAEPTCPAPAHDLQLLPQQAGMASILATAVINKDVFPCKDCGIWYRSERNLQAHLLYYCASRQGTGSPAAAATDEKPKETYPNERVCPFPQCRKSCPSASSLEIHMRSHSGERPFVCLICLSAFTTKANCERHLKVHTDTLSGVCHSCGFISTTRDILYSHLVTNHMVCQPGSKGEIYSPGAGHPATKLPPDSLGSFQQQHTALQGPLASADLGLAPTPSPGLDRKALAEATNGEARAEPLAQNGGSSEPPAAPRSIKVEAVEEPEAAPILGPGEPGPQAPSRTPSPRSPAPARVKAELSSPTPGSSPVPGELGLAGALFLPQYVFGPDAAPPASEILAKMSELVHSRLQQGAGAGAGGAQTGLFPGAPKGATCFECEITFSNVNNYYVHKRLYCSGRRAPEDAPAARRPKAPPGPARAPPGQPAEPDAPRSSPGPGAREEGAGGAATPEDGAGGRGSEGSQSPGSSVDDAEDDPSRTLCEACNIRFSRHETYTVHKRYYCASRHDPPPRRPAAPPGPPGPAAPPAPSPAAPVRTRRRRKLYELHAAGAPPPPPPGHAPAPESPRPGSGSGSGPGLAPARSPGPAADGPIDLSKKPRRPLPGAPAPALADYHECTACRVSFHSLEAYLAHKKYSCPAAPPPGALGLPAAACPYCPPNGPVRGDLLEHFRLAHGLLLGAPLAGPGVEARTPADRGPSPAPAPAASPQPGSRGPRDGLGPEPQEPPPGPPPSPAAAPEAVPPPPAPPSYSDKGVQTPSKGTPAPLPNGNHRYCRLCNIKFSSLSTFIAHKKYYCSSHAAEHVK
UniProt Q9H8U3: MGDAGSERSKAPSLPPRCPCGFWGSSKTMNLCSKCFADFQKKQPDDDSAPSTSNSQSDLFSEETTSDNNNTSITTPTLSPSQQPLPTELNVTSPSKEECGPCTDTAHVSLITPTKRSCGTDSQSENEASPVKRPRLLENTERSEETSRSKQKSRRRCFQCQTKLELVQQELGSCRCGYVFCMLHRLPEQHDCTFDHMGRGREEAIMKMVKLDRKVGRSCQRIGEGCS
UniProt Q96DA0: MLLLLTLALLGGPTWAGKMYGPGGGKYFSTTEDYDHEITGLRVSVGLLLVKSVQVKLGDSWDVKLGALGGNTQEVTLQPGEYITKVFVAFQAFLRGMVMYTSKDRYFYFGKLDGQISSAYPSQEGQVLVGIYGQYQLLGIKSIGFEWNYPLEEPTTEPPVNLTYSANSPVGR
UniProt O60293: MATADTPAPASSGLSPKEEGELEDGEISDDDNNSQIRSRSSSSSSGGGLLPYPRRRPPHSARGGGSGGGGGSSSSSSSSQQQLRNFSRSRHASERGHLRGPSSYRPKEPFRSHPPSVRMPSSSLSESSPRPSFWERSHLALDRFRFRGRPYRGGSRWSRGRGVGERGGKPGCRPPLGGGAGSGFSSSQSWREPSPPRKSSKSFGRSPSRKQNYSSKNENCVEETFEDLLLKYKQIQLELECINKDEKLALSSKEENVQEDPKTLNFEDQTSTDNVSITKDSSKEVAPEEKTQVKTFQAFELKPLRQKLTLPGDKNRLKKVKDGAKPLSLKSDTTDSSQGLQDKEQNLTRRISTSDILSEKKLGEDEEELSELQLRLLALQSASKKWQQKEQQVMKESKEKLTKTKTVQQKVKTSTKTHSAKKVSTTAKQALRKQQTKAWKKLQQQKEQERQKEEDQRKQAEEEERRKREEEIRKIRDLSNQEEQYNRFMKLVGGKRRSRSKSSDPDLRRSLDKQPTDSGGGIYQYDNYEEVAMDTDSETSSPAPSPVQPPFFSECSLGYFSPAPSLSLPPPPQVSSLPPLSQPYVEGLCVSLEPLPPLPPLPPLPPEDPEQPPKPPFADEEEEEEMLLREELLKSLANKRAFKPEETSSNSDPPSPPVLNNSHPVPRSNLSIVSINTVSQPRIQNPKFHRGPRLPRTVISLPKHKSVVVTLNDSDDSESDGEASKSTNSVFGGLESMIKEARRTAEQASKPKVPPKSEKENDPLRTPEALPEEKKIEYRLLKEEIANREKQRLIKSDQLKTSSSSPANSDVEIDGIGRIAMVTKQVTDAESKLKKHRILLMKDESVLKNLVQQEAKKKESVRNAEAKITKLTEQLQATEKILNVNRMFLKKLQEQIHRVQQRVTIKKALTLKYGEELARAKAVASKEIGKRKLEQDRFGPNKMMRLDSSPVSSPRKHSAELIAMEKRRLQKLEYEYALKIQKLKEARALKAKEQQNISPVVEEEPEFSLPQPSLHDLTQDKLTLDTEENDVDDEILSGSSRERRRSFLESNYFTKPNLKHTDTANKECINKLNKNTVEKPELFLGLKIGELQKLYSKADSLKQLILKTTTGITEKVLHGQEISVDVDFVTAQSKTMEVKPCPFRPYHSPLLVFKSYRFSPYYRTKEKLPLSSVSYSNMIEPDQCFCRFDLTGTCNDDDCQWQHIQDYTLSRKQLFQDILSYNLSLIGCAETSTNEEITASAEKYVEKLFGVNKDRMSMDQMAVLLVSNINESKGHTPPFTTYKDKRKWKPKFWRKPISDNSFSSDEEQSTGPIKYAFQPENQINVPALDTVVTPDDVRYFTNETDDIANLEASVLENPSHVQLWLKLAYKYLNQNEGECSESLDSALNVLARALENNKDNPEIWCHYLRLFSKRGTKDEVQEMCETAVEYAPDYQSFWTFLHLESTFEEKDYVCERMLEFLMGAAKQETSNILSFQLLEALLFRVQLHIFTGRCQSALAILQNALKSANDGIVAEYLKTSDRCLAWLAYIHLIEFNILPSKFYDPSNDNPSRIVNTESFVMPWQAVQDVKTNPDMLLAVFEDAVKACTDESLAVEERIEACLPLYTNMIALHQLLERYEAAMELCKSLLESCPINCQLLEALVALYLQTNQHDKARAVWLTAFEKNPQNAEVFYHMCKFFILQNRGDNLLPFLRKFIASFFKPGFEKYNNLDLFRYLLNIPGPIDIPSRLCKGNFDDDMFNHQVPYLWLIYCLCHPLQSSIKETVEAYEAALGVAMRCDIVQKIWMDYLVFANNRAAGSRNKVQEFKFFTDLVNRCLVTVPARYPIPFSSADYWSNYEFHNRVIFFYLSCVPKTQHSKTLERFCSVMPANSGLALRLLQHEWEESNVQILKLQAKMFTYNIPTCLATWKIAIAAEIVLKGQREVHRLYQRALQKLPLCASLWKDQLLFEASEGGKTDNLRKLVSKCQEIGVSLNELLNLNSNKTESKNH
UniProt O43543: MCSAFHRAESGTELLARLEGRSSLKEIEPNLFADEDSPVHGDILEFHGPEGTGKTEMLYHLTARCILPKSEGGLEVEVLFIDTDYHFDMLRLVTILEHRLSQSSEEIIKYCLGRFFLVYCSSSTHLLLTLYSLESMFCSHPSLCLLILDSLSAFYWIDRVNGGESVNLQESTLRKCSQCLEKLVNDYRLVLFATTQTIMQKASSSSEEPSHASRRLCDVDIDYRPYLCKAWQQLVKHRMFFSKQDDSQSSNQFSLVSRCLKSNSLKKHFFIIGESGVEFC

This is one part of the list.

Compound in one assay: CON(C)C(=O)N1N=C(c2cc(F)ccc2F)S[C@@]1(CCCN)c1ccccc1 [filanesib]
Put plainly: log2 fold change, soluble protein after heating vs DMSO (PISA); higher = thermal stabilisation; K562 cells, 10 uM, 30 min; active = over 0.2 and 3.5 SD of the protein, either way, in both replicates (recomputed). A digest of the protocol:
(§1)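 Soluble protein was defined as the supernatant after 21,000xg for 90 min. It came from K562 cells at 2×10^6 cells/mL given 10 μM compound for 30 min, heated in aliquots for 3 min across 48°C-58°C, pooled, and extracted in PBS with 0.5% NP-40 at 4°C, and was quantified by TMTpro 16plex LC-MS/MS with equalised channel sums. Thermal stability against control samples, from duplicates, is reported as log2 fold change.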
For the target ZBTB24 (UniProt O43167), the log2 fold change was inactive: 0.239.
Same read-out and setting: to XIRP2 isoform 8 (UniProt A4UGR9) belongs inactive: 0.07; to ZNF106 (UniProt Q9H2Y7), inactive: 0.071.
The same measure, in the same setting: to ZDHHC16 (UniProt Q969W1) belongs inactive: 0.084.
Same read-out and setting: then ZKSCAN8 (UniProt Q15776), with inactive: 0.265; and YIPF1 (UniProt Q9Y548), with inactive: 0.023.
For ZCRB1 (UniProt Q8TBF4), the log2 fold change is inactive: 0.019.
Same read-out and setting: then ZNF207 isoform 2 (UniProt O43670), with inactive: 0.044.
The same measure, in the same setting: then ZBTB7B isoform 2 (UniProt O15156), with inactive: 0.272; and ZBED1 (UniProt O96006), with inactive: 0.088; and ZDHHC13 (UniProt Q8IUH4), with inactive: 0.031.
For ZFPM1 (UniProt Q8IX07), the log2 fold change is inactive: 0.016.
On the same count and under the same terms, to ZBTB10 (UniProt Q96DT7) belongs inactive: 0.039; to ZBTB17 isoform 2 (UniProt Q13105), inactive: -0.026.
On the same count and under the same terms, to ZFAND3 (UniProt Q9H8U3) belongs inactive: -0.06; to ZCCHC17 (UniProt Q9NP64), active: 0.565.
The same measure, in the same setting: then ZG16B (UniProt Q96DA0), with inactive: -0.054.
Take ZFC3H1 (UniProt O60293): the log2 fold change was inactive: -0.091.

Compound in a further assay: CO[C@H]1C[C@@H]2CC[C@@H](C)[C@@](O)(O2)C(=O)C(=O)N2CCCC[C@H]2C(=O)O[C@H]([C@H](C)C[C@@H]2CC[C@H](n3cnnn3)[C@H](OC)C2)CC(=O)[C@H](C)/C=C(\C)[C@@H](O)[C@@H](OC)C(=O)[C@H](C)C[C@H](C)/C=C/C=C/C=C/1C [zotarolimus]
The description is as above. In outline: as §1
With XRCC2 (UniProt O43543), the log2 fold change was inactive: 0.018.
The same measure, in the same setting: then ZBTB24 (UniProt O43167), with inactive: 0.007; and XIRP2 isoform 8 (UniProt A4UGR9), with inactive: 0.009.
Still for that read-out and setting: then YIPF1 (UniProt Q9Y548), with inactive: -0.095; and ZKSCAN3 (UniProt Q9BRR0), with inactive: 0.
Still for that read-out and setting: to ZBTB14 (UniProt O43829) belongs inactive: -0.015; to ZNF207 isoform 2 (UniProt O43670), inactive: -0.333.
In the case of ZBED1 (UniProt O96006), the log2 fold change was inactive: -0.143.
Still for that read-out and setting: then ZDHHC13 (UniProt Q8IUH4), with inactive: 0.147; and ZFPM1 (UniProt Q8IX07), with inactive: -0.028.
Still for that read-out and setting: to ZBTB10 (UniProt Q96DT7) belongs inactive: -0.154; to ZC3H11A (UniProt O75152), inactive: 0.138; to ZFYVE26 (UniProt Q68DK2), inactive: -0.194.
Same read-out and setting: then ZKSCAN4 (UniProt Q969J2), with inactive: 0.021; and XP32 (UniProt Q5T750), with inactive: -0.256.
With ZFAND3 (UniProt Q9H8U3), the log2 fold change was inactive: -0.012.
Same read-out and setting: to ZFPM2 (UniProt Q8WW38) belongs inactive: -0.089.
On the same count and under the same terms, to YIPF2 (UniProt Q9BWQ6) belongs inactive: 0.218.

Compound in another assay: COc1cc(C(=O)O)ccc1NC(=O)[C@@H]1N[C@@H](CC(C)(C)C)[C@](C#N)(c2ccc(Cl)cc2F)[C@H]1c1cccc(Cl)c1F [idasanutlin]
Described as above. In outline:
as §1
Consider ZBTB24 (UniProt O43167), for which the log2 fold change was inactive: 0.102.
Turning to XIRP2 isoform 8 (UniProt A4UGR9), the log2 fold change was inactive: -0.061.
The same measure, in the same setting: to ZFYVE21 isoform 2 (UniProt Q9BQ24) belongs inactive: 0.129; to ZNF207 isoform 2 (UniProt O43670), inactive: -0.083.
Same read-out and setting: to XPA (UniProt P23025) belongs inactive: -0.002; to ZBED1 (UniProt O96006), inactive: -0.036; to ZDHHC13 (UniProt Q8IUH4), inactive: 0.089.
On the same count and under the same terms, to ZBTB10 (UniProt Q96DT7) belongs inactive: 0.215; to ZBTB44 (UniProt Q8NCP5), inactive: 0.085.
As to ZKSCAN4 (UniProt Q969J2), the log2 fold change was inactive: 0.295.
In the case of ZNF225 (UniProt Q9UK10), the log2 fold change was inactive: -0.197.
For ZBTB34 (UniProt Q8NCN2), the log2 fold change is inactive: 0.204.
Same read-out and setting: then XP32 (UniProt Q5T750), with inactive: 0.477; and ZFAND3 (UniProt Q9H8U3), with inactive: 0.104.
Same read-out and setting: to ZFPM2 (UniProt Q8WW38) belongs inactive: -0.1; to ZG16B (UniProt Q96DA0), inactive: -0.444; to ZFC3H1 (UniProt O60293), inactive: -0.007.

Compound in the next assay: COc1cc(Nc2ncc3c(n2)-c2ccc(Cl)cc2C(c2c(F)cccc2OC)=NC3)ccc1C(=O)O [alisertib]
The description is as above. A digest of the protocol:
as §1
Regarding XRCC2 (UniProt O43543), the log2 fold change is inactive: 0.158.
On the same count and under the same terms, to ZFP36L2 (UniProt P47974) belongs inactive: -0.035.
On the same count and under the same terms, then XIRP2 isoform 8 (UniProt A4UGR9), with inactive: 0.03; and YIPF1 (UniProt Q9Y548), with inactive: -0.065; and ZBTB14 (UniProt O43829), with inactive: 0.067.
Still for that read-out and setting: then ZNF207 isoform 2 (UniProt O43670), with inactive: -0.038.
Consider ZBTB10 (UniProt Q96DT7), for which the log2 fold change is inactive: -0.026.
Consider ZC3H11A (UniProt O75152), for which the log2 fold change is inactive: -0.032.
Still for that read-out and setting: then ZBTB17 isoform 2 (UniProt Q13105), with inactive: 0.136; and XP32 (UniProt Q5T750), with inactive: 1.1.
On the same count and under the same terms, to ZFAND3 (UniProt Q9H8U3) belongs inactive: -0.001; to ZFPM2 (UniProt Q8WW38), inactive: -0.116.
Still for that read-out and setting: to ZG16B (UniProt Q96DA0) belongs inactive: 0.387; to ZFC3H1 (UniProt O60293), inactive: 0.33.

Compound in another assay: COc1cc2nc(-c3cc(F)ccc3O)nc(N[C@@H]3CNC[C@H]3C(C)(C)O)c2cc1OC
The assay is described as above. A digest of the protocol: as §1
With XRCC2 (UniProt O43543), the log2 fold change is inactive: -0.011.
As to ZBTB24 (UniProt O43167), the log2 fold change is inactive: -0.054.
For XIRP2 isoform 8 (UniProt A4UGR9), the log2 fold change is inactive: 0.076.
The same measure, in the same setting: then ZNF106 (UniProt Q9H2Y7), with inactive: 0.298; and ZKSCAN8 (UniProt Q15776), with inactive: -0.212.
The same measure, in the same setting: then YIPF1 (UniProt Q9Y548), with inactive: 0.036; and ZCRB1 (UniProt Q8TBF4), with inactive: 0.091.
On the same count and under the same terms, to ZNF207 isoform 2 (UniProt O43670) belongs inactive: -0.223.
In the case of XPA (UniProt P23025), the log2 fold change was inactive: -0.025.
On the same count and under the same terms, to ZBED1 (UniProt O96006) belongs inactive: -0.038.
As to ZFPM1 (UniProt Q8IX07), the log2 fold change was inactive: 0.076.
As to ZBTB10 (UniProt Q96DT7), the log2 fold change is inactive: 0.02.
With ZC3H11A (UniProt O75152), the log2 fold change is inactive: -0.077.
Same read-out and setting: then ZFAND3 (UniProt Q9H8U3), with inactive: -0.134; and ZG16B (UniProt Q96DA0), with inactive: 0.56.
The same measure, in the same setting: then ZDHHC6 (UniProt Q9H6R6), with inactive: 0.018.
